Measured values: publication PMC8357790
Results are given in words; binding and its absence hold for the method and conditions named. Some entries that bind do so weakly or less than the wild type. Where a sequence is shown, tags or fusion partners need not be part of it.

Chains of the proteins cited; added tags and fusions are not shown.
UniProt Q8N122: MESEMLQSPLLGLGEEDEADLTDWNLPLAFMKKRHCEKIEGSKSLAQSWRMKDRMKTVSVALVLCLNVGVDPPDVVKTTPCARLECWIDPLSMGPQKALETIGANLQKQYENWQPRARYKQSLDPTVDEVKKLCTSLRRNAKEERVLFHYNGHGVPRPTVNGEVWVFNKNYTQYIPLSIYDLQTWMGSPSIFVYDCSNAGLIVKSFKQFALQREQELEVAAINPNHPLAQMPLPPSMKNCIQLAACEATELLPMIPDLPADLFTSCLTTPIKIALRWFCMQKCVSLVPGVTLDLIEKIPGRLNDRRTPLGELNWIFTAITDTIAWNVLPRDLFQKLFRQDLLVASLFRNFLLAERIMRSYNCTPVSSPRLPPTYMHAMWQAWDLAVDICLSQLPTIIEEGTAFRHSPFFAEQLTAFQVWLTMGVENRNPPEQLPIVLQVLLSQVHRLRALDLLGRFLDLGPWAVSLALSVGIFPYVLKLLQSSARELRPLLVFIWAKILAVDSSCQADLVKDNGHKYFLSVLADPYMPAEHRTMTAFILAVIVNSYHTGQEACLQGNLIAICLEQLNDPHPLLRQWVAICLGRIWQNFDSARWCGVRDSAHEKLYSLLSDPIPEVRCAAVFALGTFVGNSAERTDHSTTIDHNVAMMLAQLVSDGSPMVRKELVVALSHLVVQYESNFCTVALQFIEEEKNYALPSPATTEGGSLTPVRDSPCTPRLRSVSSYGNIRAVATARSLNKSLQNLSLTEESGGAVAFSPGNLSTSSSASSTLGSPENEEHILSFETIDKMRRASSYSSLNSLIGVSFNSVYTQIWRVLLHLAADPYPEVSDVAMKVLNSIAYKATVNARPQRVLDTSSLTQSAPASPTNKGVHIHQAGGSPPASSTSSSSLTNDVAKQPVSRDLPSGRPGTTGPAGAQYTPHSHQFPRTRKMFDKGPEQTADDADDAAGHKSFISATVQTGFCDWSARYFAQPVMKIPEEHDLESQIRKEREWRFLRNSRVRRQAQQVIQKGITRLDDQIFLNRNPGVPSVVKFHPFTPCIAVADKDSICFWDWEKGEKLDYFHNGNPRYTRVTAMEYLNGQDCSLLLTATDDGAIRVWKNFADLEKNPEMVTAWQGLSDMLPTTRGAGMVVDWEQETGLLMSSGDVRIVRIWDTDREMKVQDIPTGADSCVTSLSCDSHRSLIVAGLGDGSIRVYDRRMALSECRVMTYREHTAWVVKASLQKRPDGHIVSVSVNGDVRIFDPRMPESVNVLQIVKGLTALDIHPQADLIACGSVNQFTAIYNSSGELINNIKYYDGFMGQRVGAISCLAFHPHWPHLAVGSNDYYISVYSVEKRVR

Target: T1, FLAG-HA-Unkempt (UniProt Q8BL48)
T1 sequence: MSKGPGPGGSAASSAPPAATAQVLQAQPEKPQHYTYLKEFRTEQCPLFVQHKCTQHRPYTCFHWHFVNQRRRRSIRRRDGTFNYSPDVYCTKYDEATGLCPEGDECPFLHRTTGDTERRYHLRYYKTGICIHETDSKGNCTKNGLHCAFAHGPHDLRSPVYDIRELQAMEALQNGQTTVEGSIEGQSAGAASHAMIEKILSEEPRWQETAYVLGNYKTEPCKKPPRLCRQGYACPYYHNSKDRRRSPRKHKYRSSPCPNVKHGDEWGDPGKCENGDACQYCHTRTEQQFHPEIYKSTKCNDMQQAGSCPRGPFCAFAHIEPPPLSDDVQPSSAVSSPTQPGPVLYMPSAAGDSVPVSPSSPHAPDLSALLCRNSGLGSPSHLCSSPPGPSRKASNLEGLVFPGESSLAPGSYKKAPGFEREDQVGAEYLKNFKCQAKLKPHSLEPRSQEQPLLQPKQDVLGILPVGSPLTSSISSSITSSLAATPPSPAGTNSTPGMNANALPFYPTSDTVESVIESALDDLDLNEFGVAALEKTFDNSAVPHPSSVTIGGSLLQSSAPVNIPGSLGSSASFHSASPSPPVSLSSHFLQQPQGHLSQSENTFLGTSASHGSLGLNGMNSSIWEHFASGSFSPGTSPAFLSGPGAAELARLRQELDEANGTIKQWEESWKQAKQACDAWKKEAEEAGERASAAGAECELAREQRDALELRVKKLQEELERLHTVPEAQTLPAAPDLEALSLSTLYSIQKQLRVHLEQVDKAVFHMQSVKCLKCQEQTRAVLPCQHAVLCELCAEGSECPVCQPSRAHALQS
Assay: far-Western, overlay or dot blot; Raptor overlay assay: purified FLAG-HA-Unkempt, mock purified extract or recombinant 4E-BP1 dotted onto PVDF membrane; incubated with lysate of HEK293 cells overexpressing HA-Raptor, HA-Raptor mutant 4 or carrying empty vector; probed with an anti-Raptor antibody; only the target purified

With “HA-Raptor (wild-type) (from UniProt Q8N122 1-1335)” the binding was “binds”.
